# According to patent US20180228743A1, “COMPOUNDS AND METHODS OF PROMOTING MYELINATION” (Case Western Reserve University, priority 2016, published 2018):
# System: EpiSC-derived OPCs
# Experiment: High-throughput screening of 3,000 bioactive small molecules for MBP+ oligodendrocyte formation from OPCs
# Type: cell-based, mouse
# Conditions: 2 μM, 72 h, cells scored per well
# Excerpt: Plates were imaged on the Operetta High Content Imaging and Analysis system (PerkinElmer) and a set of 6 fields captured from each well resulting in an average of 1200 cells being scored per well. Analysis (PerkinElmer Harmony and Columbus software) began by identifying intact nuclei stained by DAPI; that is, those traced nuclei that were larger than 300 μm^2 in surface area. Each traced nucleus region was then expanded by 50% and cross-referenced with the […] (MBP) stain to identify oligodendrocyte nuclei, and from this the percentage of oligodendrocytes was calculated. In some experiments, the total process length of MBP+ oligodendrocytes was calculated as previously described.
# EpiSC-derived OPCs were grown and expanded in poly-ornithine and laminin-coated flasks before harvesting for plating. Cells were dispensed in differentiation media supplemented with Noggin (R&D Systems; 100 ng/ml), Neurotrophin 3 (R&D Systems; 10 ng/ml), cAMP (Sigma; 50 μM), and IGF-1 (R&D Systems; 100 ng/ml)) using a Biotek EL406 Microplate Washer Dispenser (Biotek) equipped with 5 μL dispense cassette (Biotek), into poly-D-lysine/laminin (Sigma, L2020; 4 μg/ml)-coated sterile, 384-well, CellCarrier ultra plates (PerkinElmer), to a final density of 12,500 cells per well and allowed to attach for 45 min before addition of drug. A 3 mM stock of bioactive compound library in dimethylsulphoxide (DMSO) were prepared in an Abgene storage 384-well plate (ThermoFisher Scientific; AB1055). These were added to assay plates using a 50 nL solid pin tool attached to Janus automated workstation (Perkin Elmer), resulting in a final screening concentration of 2 μM. Cells were incubated at 37° C. for 1 hour and then T3 (Sigma; 40 ng/ml) was added to all wells except negative controls, to which FGF (20 ng/ml) was added instead. Negative controls and T3-alone were included in each assay plate. After incubation at 37° C. for 72 h, cells were fixed, washed and stained similar to 96-well OPC assay protocol, although all the washing steps were performed using a Biotek EL406 Microplate Washer Dispenser (Biotek) equipped with a 96-well aspiration manifold. Cells were stained with DAPI (Sigma; 1 μg/ml) and MBP antibody (Abcam, ab7349; 1:100). Plates were imaged on the Operetta High Content Imaging and Analysis system (PerkinElmer) and a set of 4 fields captured from each well resulting in an average of 700 cells being scored per well. Analysis was performed as in High-Content Imaging and Analysis, above. All plates for the primary screen were processed and analyzed simultaneously to minimize variability. Molecules causing more than 20% reduction in nuclear count relative to DMSO control wells were removed from consideration, and hits were called on the basis of largest fold-increase in percentage of MBP+ oligodendrocytes relative to DMSO controls within the same plate.
row,Compound,Total Cells
1,CN1CCC[C@@H]1CCO[C@](C)(c1ccccc1)c1ccc(Cl)cc1 [Clemastine fumarate],449
2,C[C@]12CC[C@@H]3c4ccc(O)cc4C[C@@H](CCCCCCCCC[S+]([O-])CCCC(F)(F)C(F)(F)F)[C@H]3[C@@H]1CC[C@@H]2O (some centres unmarked) [Fulvestrant],758
3,Clc1ccc(CCC(Cn2ccnc2)Sc2c(Cl)cccc2Cl)cc1 (centres unmarked) [Butoconazole nitrate],809
4,"Cc1nnc(C(=O)NC(C)(C)c2nc(C(=O)NCc3ccc(F)cc3)c(O)c(=O)n2C)o1 [Raltegravir (MK-0518), Raltegravir]",768
5,"Cl.O[Si](CCCN1CCCCC1)(c1ccc(F)cc1)C1CCCCC1 (centres unmarked) [Hexahydro-sila-difenidol hydrochloride, p-fluoro analog]",654
6,N=C(N)c1ccc(OCCCCCOc2ccc(C(=N)N)cc2)cc1 [Pentamidine isethionate],758
7,Cc1cc(NC(=O)Nc2ccc(N(C)C)cc2)c2cc(F)cc(F)c2n1 [SB408124],704
8,Cc1cc(Nc2cc(CN3CCOCC3)c3nc(C)c(Cc4ccc(Cl)cc4F)n3n2)n[nH]1 [LY2784544],480
9,(±)-Vesamicol,821
10,c1ccc(-c2ccc(C(c3ccccc3)n3ccnc3)cc2)cc1 (centres unmarked) [Bifonazole],820
11,O=C(C1CCCCC1)N1CC(=O)N2CCc3ccccc3C2C1 (centres unmarked) [Praziquantel],728
12,Clc1ccccc1C(c1ccccc1)(c1ccccc1)n1ccnc1 [Clotrimazole],748 and 666
13,CC(C(O)c1ccc(O)cc1)N1CCC(Cc2ccccc2)CC1 (centres unmarked) [lfenprodil Tartrate],693
14,Clc1ccc(C(Cn2ccnc2)OCc2csc3c(Cl)cccc23)c(Cl)c1 (centres unmarked) [Sertaconazole nitrate],777
15,"FC(F)(F)c1ccc(/C=C/c2nc(COc3ccc(CCCCn4ccnn4)cc3)co2)cc1 [Mubritinib (TAK 165), Mubritinib]",779
16,"Cl.Clc1ccc(N2CCN(Cc3c[nH]c4ncccc34)CC2)cc1 [L-745,870 hydrochloride]",647
17,CCN(CC)CCCCCCCCOC(=O)c1cc(OC)c(OC)c(OC)c1.Cl [TMB-8 hydrochloride],758
18,Cc1cc(C)c(CNC(=O)c2cc(-c3ccc(CN4CCOCC4)cc3)cc3c2cnn3C2CCCC2)c(=O)[nH]1 [EPZ005687],610
19,OCCOCCN1CCN(C(c2ccccc2)c2ccc(Cl)cc2)CC1 (centres unmarked) [Hydroxyzine 2HCl],896
20,CCCCOc1ccc(OCCCN2CCOCC2)cc1 [Pramoxine HCl],755
21,Clc1ccc(CSC(Cn2ccnc2)c2ccc(Cl)cc2Cl)cc1 (centres unmarked) [Sulconazole Nitrate],700
22,Clc1ccc(C(Cn2ccnc2)OCc2ccc(Sc3ccccc3)cc2)c(Cl)c1 (centres unmarked) [Fenticonazole Nitrate],687
23,Varenicline tartrate,783
24,CC(=O)N1CCN(c2ccc(OCC3COC(Cn4ccnc4)(c4ccc(Cl)cc4Cl)O3)cc2)CC1 (centres unmarked) [Ketoconazole],847

# Same assay, conditions: 2 μM, 72 h, cells scored per well; HCl
row,Compound,Total Cells
1,O=C(c1ccc(OCCN2CCCCC2)cc1)c1c(-c2ccc(O)cc2)sc2cc(O)ccc12 [Raloxifene HCl],777
2,O=C1Cc2cc(CCN3CCN(c4nsc5ccccc45)CC3)c(Cl)cc2N1 [Ziprasidone HCl],1003

# Same assay, conditions: 2 μM, 72 h, cells scored per well; hydrochloride monohydrate
row,Compound,Total Cells
1,O=C1Cc2cc(CCN3CCN(c4nsc5ccccc45)CC3)c(Cl)cc2N1 [Ziprasidone hydrochloride monohydrate],851

# Same assay, conditions: 2 μM, 72 h, cells scored per well; listed as Raloxifene hydrochloride, HCl
row,Compound,Total Cells
1,O=C(c1ccc(OCCN2CCCCC2)cc1)c1c(-c2ccc(O)cc2)sc2cc(O)ccc12 [Raloxifene HCl],924

# Same assay, conditions: 2 μM, 72 h, cells scored per well; listed as lfenprodil tartrate
row,Compound,Total Cells
1,CC(C(O)c1ccc(O)cc1)N1CCC(Cc2ccccc2)CC1 (centres unmarked) [lfenprodil Tartrate],739

# “And” between values parts separate entries of the source, which are not always exact repeats. Equal values may be shown once. Where a name gives a salt, the structure may show the parent alone.
